Assay results taken from article PMC7734798 (ACS Medicinal Chemistry Letters, 2020).

Conditions: PAMPA

COc1cc2c(cc1OC)C(=O)C(CC1CCN(Cc3ccccc3)CC1)C2 (stereo not shown) [donepezil]
BBB penetration estimation, CNS (+/−): CNS +
